According to the supplement of paper PMC10735217:
Counter-ions that a name gives are not always drawn. Some of the results follow. Single values are uncertain here, since repeats match poorly.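 In a drug-repurposing library screen, luminescence reads luciferase driven by eight TEAD-binding elements, stably integrated into human kidney-derived cells. Compounds scoring over five robust Z scores above the plate mean are called hits.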

Tested on: HEK293A TEAD-LUC reporter
Assay: TEAD-luciferase reporter activity (YAP activation), robust Z score vs plate; higher = stronger YAP/TEAD activation
Conditions: 24 h

Structure (SMILES)	TEAD-luciferase reporter activity (compound concentration: 200 nM)	TEAD-luciferase reporter activity (compound concentration: 10 uM)	TEAD-luciferase reporter activity (compound concentration: 2 uM)
O=Cc1ccc(N2CCN(C(=O)N3CCCC3)CC2=O)cc1	inactive: -0.121	active: 5.65	
CC(=O)[C@H]1CC[C@H]2[C@@H]3C=CC4=CC(=O)CC[C@@]4(C)[C@@H]3CC[C@]12C [dydrogesterone, Pantarhei]	inactive: 2.32	inactive: 0.734	
CC(=O)[C@H]1CC[C@H]2[C@@H]3C=CC4=CC(=O)CC[C@@]4(C)[C@@H]3CC[C@]12C [dydrogesterone]			inactive: 0.059
COC(CN1CCN(CCC(O)c2ccccc2)CC1)c1ccccc1 (stereo unspecified)	inactive: 2.69	inactive: 1.38	inactive: -0.824
CC(C)N(CCCCOCC(=O)NS(C)(=O)=O)c1cnc(-c2ccccc2)c(-c2ccccc2)n1 [Selexipag]	inactive: -1.47	inactive: 1.78	inactive: -1.9
CO/N=C(\C(=O)N[C@@H]1C(=O)N2C(C(=O)O)=C(C[n+]3ccn4ncccc43)CS[C@H]12)c1nsc(N)n1 [cefozopran]			inactive: 3.34
CO/N=C(\C(=O)N[C@@H]1C(=O)N2C(C(=O)O)=C(C[n+]3ccn4ncccc43)CS[C@H]12)c1nsc(N)n1 [Cefozopran]	inactive: -1.49	inactive: -0.906	inactive: 0.455
C[N+](C)([O-])CCNc1ccc(NCC[N+](C)(C)[O-])c2c1C(=O)c1c(O)ccc(O)c1C2=O [Banoxantrone]	inactive: 4.73	inactive: 1.03	inactive: -0.806
O=C1CN2Cc3cc(N4CCCCC4)ccc3N=C2N1	inactive: 1.04	inactive: -0.505	inactive: -0.476
CCCCC(C)(C)[C@H](O)/C=C/[C@H]1[C@H](O)CC(=O)[C@@H]1C/C=C\CCCC(=O)O	inactive: -1.3	inactive: 1.64	
CCCCC(C)(C)[C@H](O)/C=C/[C@H]1[C@H](O)CC(=O)[C@@H]1C/C=C\CCCC(=O)O [16,16-dimethyl PGE2]			inactive: 0.358
CCCCC(Oc1ccccc1CNc1cccc(/C=C/c2ccc3cc(Cl)ccc3n2)c1)C(=O)O (stereo unspecified)	inactive: -0.818	inactive: 0.0205	inactive: -0.595
C=C[C@]1(C)C[C@@H](OC(=O)CSc2cccc(CO)c2)[C@]2(C)C(C)CCC3(CCC(=O)C32)[C@@H](C)[C@@H]1O (stereo partly specified)	inactive: 1.3	inactive: -0.252	inactive: -0.874
C[N+](C)(Cc1ccc(NC(=O)c2ccc(Cl)c(Cl)c2)cc1)C1CCOCC1	inactive: -1.88	inactive: -1.11	inactive: -0.188
Cc1c(C(C)OC(=O)CCC(=O)O)oc2ccc(C3=CC(=O)OC3)cc12 (stereo unspecified)	inactive: -0.769	inactive: 1.05	inactive: -0.652
C[C@@H]1C[C@H]2[C@@H]3CCC4=CC(=O)C=C[C@]4(C)[C@@]3(F)[C@@H](O)C[C@]2(C)[C@@]1(O)C(=O)COC(=O)c1ccncc1 [Dexamethasone Isonicotinate CRS]	inactive: -0.203	inactive: 0.242	inactive: 0.376
COc1ccc(Cl)c(-c2ccc(NC(=O)c3cnn(C)c3)nc2N)c1	inactive: 0.532	inactive: 1.36	inactive: 2.74
CC1(C)CC(=O)c2c(O)cc(OCC(=O)O)cc2O1	inactive: -1.14	inactive: -0.735	inactive: -0.189
O=C(O)COc1cccc(CN(Cc2ccc(-n3cccn3)cc2)S(=O)(=O)c2cccnc2)c1 [taprenepag]	inactive: -0.95	inactive: 0.536	inactive: 2.6
CC(=O)N1CCC[C@H]1C(=O)N[C@@H](Cc1c[nH]cn1)C(=O)N[C@@H](CO)C(=O)N[C@@H](CS)C(=O)N[C@@H](CC(N)=O)C(N)=O	inactive: -0.557	inactive: 4.38	inactive: -1.39
COc1ccc2c(c1)c(CC(=O)NO)c(C)n2C(=O)c1ccc(Cl)cc1 [oxametacin]	inactive: -0.628	inactive: 2.85	inactive: 0.911
C=CS(=O)(=O)[O-]	inactive: -0.716	inactive: 0.255	inactive: -1.04
CCCCCCCCCCCCCCCC(=O)O[C@@H]1[C@@H](O)[C@@H](O)[C@@H]([C@H](NC(=O)[C@@H]2C[C@@H](CCC)CN2C)[C@H](C)Cl)O[C@@H]1SC [Clindamycin Palmitate?HCl]	inactive: -1.25	inactive: -1.25	
CCCCCCCCCCCCCCCC(=O)O[C@@H]1[C@@H](O)[C@@H](O)[C@@H]([C@H](NC(=O)[C@@H]2C[C@@H](CCC)CN2C)[C@H](C)Cl)O[C@@H]1SC [Clindamycin palmitate HCl]			inactive: -0.709
Cc1ccc(NS(=O)(=O)Cc2ccccc2)c(=O)n1CC(=O)NCC1CCN(C(=N)N)CC1	inactive: -1.42	inactive: 2.3	inactive: -2.11
COc1ccc2c(c1)C(C(=O)N(Cc1ccc(N(C)C)cc1)c1ccc(C(C)C)cc1)CCC2 (stereo unspecified)	inactive: -0.91	inactive: -1.31	inactive: 1.58

Two successive entries from above, for reference:
Structure (SMILES)	TEAD-luciferase reporter activity (compound concentration: 200 nM)	TEAD-luciferase reporter activity (compound concentration: 10 uM)	TEAD-luciferase reporter activity (compound concentration: 2 uM)
COC(CN1CCN(CCC(O)c2ccccc2)CC1)c1ccccc1 (stereo unspecified)	inactive: 2.69	inactive: 1.38	inactive: -0.824
CC(C)N(CCCCOCC(=O)NS(C)(=O)=O)c1cnc(-c2ccccc2)c(-c2ccccc2)n1 [Selexipag]	inactive: -1.47	inactive: 1.78	inactive: -1.9
